Test results taken from patent publication US12611425B2, “Compositions and methods for treatment and prevention of pathogens” (WIAB WATER INNOVATION AB, priority 2022, dated 2026).
For at least one compound, name, drawing or mass did not settle the structure.

Test: Dissolving time of powdered calcium hypochlorite in acetic acid/acetate buffer
Format: physicochemical
Settings: 2500 rpm, particle size ≤500 μm
Description: • I. 58±4 mg of all sizes of the powdered material was, respectively, dissolved in 100 mL 0.25% wt. acetic acid/acetate buffer. Particle size ≤250 μm dissolved within 10 seconds, ≤355 μm within 15 seconds and ≤500 μm within one minute and 25 seconds at 2500 rpm. • II. 58±4 mg of all sizes of the powdered material was, respectively, dissolved in 100 mL 3.0% wt. acetic acid/acetate buffer. Particle size ≤250 μm dissolved within 10 seconds, ≤355 μm within 25 seconds and ≤500 μm within 25 seconds at 2500 rpm. • III. 570±40 mg of all sizes of the powdered material was, respectively, dissolved in 100 mL 0.25% wt. acetic acid/acetate buffer. Particle size ≤250 μm dissolved within 15 seconds, ≤355 μm within 45 seconds and ≤500 μm within one minute and 35 seconds at 2500 rpm. • IV. 570±40 mg of all sizes of the powdered material was, respectively, dissolved in 100 mL 3.0% wt. acetic acid/acetate buffer. Repeated with 3.0% acetic acid/acetate buffer. Particle size ≤250 μm dissolved within 15 seconds, ≤355 μm within 15 seconds and ≤500 μm within 20 seconds at 2500 rpm.

With [Ca+2].[O-]Cl.[O-]Cl [powdered calcium hypochlorite, calcium hypochlorite] the dissolving time (I: 58±4 mg in 100 mL 0.25% wt. buffer) was “one minute and 25 seconds” and the dissolving time (III: 570±40 mg in 100 mL 0.25% wt. buffer) was “one minute and 35 seconds”.
